Some results were stated once for a whole list of compounds, not compound by compound.
System: Kunming species mice
Experiment: acute toxicity test of mice
Conditions: according to LD50 value
Experimental: Materials: 20 Kunming species mice of 6-8 weeks of 20-22 g are purchased from Beijing Vital River Laboratory Animal Technology Co., Ltd.,
Accurately weigh the 2 compounds S13 and S28, and then add 0.5% CMC-Na to make the solution of 0.2 g/ml.
After being acclimatized for 3-5 days, the mice are fasted at 18:00 in the day before the experiment, free drinking. The mice are randomly divided into groups of 10 animals in each and given with medicine by intragastric administration, and 0.25 ml of drugs is given to every 10 g weight of mice, i.e. dose 5 g/kg. Mice of control group are given with 0.5% CMC-Na by intragastric administration, and 0.25 ml of solution are given to every 10 g weight of mice.
After administration, observe the general status of mice, such as appearance, behavior, response to stimulus, secretion and excretion, and record the time when abnormal phenomena happen. If death occurred, record time and observe the abnormal phenomena by autopsy.

Structure (SMILES)	intragastric administration toxicity classification
CC(C)=CCC/C(C)=C/CCC1=C[C@H](c2cc(O)ccc2O)OC1=O [S13, (R,E)-5-(2,5-dihydroxyphenyl)-3-(4,8-dimethylnona-3,7-dien-1-yl)furan-2(5H)-one]	actually non-toxic (LD50>5000 mg/kg actually non-toxic)
CC(C)=CCC/C(C)=C/CCC1=C[C@@H](c2cc(O)ccc2O)OC1=O [S28, (S,E)-5-(2,5-dihydroxyphenyl)-3-(4,8-dimethylnona-3,7-dien-1-yl)furan-2(5H)-one]	actually non-toxic (LD50>5000 mg/kg actually non-toxic)
